Measured values as given in PubChem BioAssay AID720591 (Broad Institute, 2013).
About 60 (5%) of roughly 1,200 compounds were called active. About 1% were inconclusive and are not listed.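 Rule for the calls: active = Decreasing signal and fitted IC50 at most twice the top valid tested dose; inconclusive = Bad fit or a level curve showing 30 to 70% inhibition; inactive = the rest.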 This is one part of the list. Entries with a potency or affinity are not part of this list.

The chains behind the UniProt entries cited, without tags or fusion partners. Where a name states a change or a piece, a line headed by the entry shows the natural chain unless it says otherwise.
UniProt Q9NXA8: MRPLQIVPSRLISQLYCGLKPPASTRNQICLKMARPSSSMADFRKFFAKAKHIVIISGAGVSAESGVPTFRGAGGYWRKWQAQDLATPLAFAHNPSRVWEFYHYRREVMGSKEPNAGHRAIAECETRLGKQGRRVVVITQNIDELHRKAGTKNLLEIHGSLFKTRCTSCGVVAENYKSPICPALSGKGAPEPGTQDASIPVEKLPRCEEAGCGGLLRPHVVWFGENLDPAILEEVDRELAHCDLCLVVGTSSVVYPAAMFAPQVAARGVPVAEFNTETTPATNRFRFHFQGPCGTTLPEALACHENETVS

These compounds were tested against NAD-dependent protein deacylase sirtuin-5, mitochondrial (Homo sapiens) (UniProt Q9NXA8) (assay: sirtuin-5 deacylation blockers, concentration series – biochemical, fluorescence imaging, cherry-pick, set 5, dose response (AID 720591;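 note: 0% = median of neutral control wells and -100% = median of positive control wells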)). Details: Purified SirT5, succinyl-peptide AMC, trypsin-coupled fluorescence; at 15 µM (top of the series).
For `CN1CC(C(=O)c2ccc(Cl)cc2)C(c2ccccc2)C1` (stereo unspecified), the activity change, negative = inhibition was inactive: -9.11%. In the case of `CCN(CC)C(=O)c1ccc(NC(=O)COc2ccccc2F)cc1`, the activity change, negative = inhibition is reported as inactive: 2.2%. In the case of `CCOC(=O)[C@]12Cc3cc4ccccc4cc3[C@H]1N(Cc1ccccc1)C(=O)c1ccccc12`, the activity change, negative = inhibition is reported as inactive: 14.8%. `CSCCC(c1nnnn1-c1ccc2c(c1)OCCO2)N1CCC(n2c(=O)[nH]c3ccccc32)CC1` (stereo unspecified) was tested, and the activity change, negative = inhibition was inactive: 5.66%. In the case of `COC(=O)C1=C(c2cccc(OCc3ccccc3)c2)C[C@@H]2CC[C@H]1N2C(=O)NCCCOC(C)C`, the activity change, negative = inhibition is reported as inactive: -8.24%. With `CS(=O)(=O)c1ccc(C2=C(CNC(=O)c3cccs3)[C@H]3CC[C@@H](C2)N3CCOc2ccccc2)cc1` the activity change, negative = inhibition was inactive: -32.4%. For `CC(=O)Nc1ccc(C(=O)C(Cc2ccccc2)N(C)C)cc1` (stereo unspecified), the activity change, negative = inhibition was inactive: -32.1%. With `CCN1C[C@]2(CO)CC[C@H](OC)[C@@]34C2[C@H](OC)[C@@](O)(C13)[C@@]1(O)C[C@H](OC)[C@H]2C[C@@H]4[C@@H]1[C@H]2OC` the activity change, negative = inhibition was inactive: -16.9%. `COc1cccc(CC(=O)N(C)C2CCCN(Cc3ccccc3F)C2)c1` (stereo unspecified) was tested, and the activity change, negative = inhibition was inactive: 9.95%. `O=C(NCC1=C(c2ccc3ccccc3c2)C[C@@H]2CC[C@H]1N2Cc1ccco1)c1ccncc1` was tested, and the activity change, negative = inhibition was inactive: -0.656%. `Cc1ccc(OCCSC2=NN2c2cc(C)nc(N)n2)cc1` was tested, and the activity change, negative = inhibition was inactive: 9.78%. In the case of `C[C@]12CCC3C(CC[C@H]4C[C@@H](O)CC[C@]34C)C1C[C@@H](Br)[C@@H]2O` (stereo partly specified), the activity change, negative = inhibition is reported as inactive: 19.3%. For `OCCNCCc1c[nH]c2ccc(OCc3ccccc3)cc12`, the activity change, negative = inhibition was inactive: -3.1%. For `CCCCN1CCC(C#N)(Nc2ccccc2)CC1`, the activity change, negative = inhibition was inactive: -24.2%. In the case of `CCOC(=O)[C@]12Cc3c(cc(OC)c(OC)c3OC)[C@H]1N(C1CCCCC1)C(=O)c1ccccc12`, the activity change, negative = inhibition is reported as inactive: 1.73%. `COc1ccc(-n2c(-c3ccccc3Br)nc3ccccc3c2=O)cc1` was tested, and the activity change, negative = inhibition was inactive: -17%.
